PubChem BioAssay AID652259, Drosophila RNAi Screening Center – 2013

- Purpose: 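Knock-downs that push a Wingless-driven reporter up or down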 (primary screen)
- Cell system: Drosophila clone 8 imaginal disc epithelial cells
- Reagent: long dsRNA against Drosophila genes
- Conditions: pathway stimulated by co-transfected Wingless expression plasmid
- Read-out: 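Firefly luciferase from a tcf-site Wingless reporter, measured alongside co-transfected Renilla luciferase that tracks transfection; pathway stimulated by a Wingless plasmid; the firefly-to-Renilla ratio is not deposited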
- Reading the numbers: firefly reporter light: higher = more Wg reporter light, before normalisation; Renilla control light: higher = more transfected or surviving cells
- Active means: 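a knock-down is a candidate when at least two out of four statistical tests show it departing from its plate mean; one test alone signals a weak candidate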
- Meaning of the calls: active = candidate regulator (raises or lowers reporter); inactive = not a candidate
The screen tested about 22,000 reagents; this is an unselected part of those that have a named target and a result. Over the whole deposit, 233 (1.1%) got an active call. 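Light values are raw, unnormalised plate reads; the ratio scores behind the reporter calls were not deposited.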 A plus sign joins genes that one reagent is predicted to hit. No sequences are given here. The record does not give: the amount of reagent, the time to read-out, the dose of the treatment.

target	dsRNA	firefly reporter light, replicate 1	firefly reporter light, replicate 2	Renilla control light, replicate 1	Renilla control light, replicate 2	Call
sesB	DRSC20371	18913		7451		inactive
Vps35	DRSC04519	7283		2261		inactive
CG30357	DRSC22472	4.71e5	5.26e5	1.29e5	1.03e5	inactive
Dnali1	DRSC16158	7244		2935		inactive
GckIII	DRSC15729	12549		2064		inactive
dsx	DRSC12649	2180		912		inactive
dsx	DRSC16934	9248		2224		inactive
dsx	DRSC21495	7.76e5	7.90e5	3.87e5	3.19e5	inactive
CG13108	DRSC02206	2565	4589	1083	2130	inactive
CG5793	DRSC15874	21714		5363		inactive
CG31368	DRSC14949	12632		3058		inactive
CG31368	DRSC14951	6474		2019		inactive
rdhB	DRSC16190	1740	5616	693	1669	inactive
a	DRSC04667	2897	5273	262	584	inactive
a	DRSC04668	1965	6026	441	2304	inactive
Ser8	DRSC06891	9057		2736		inactive
Ets21C	DRSC00751	6417	6930	1696	3298	inactive
Septin2	DRSC16855	5353	6162	1338	1627	inactive
CG6791	DRSC16118	10374		3385		inactive
CG5103	DRSC10481	5328		2397		inactive
for	DRSC00195	20914		9141		inactive
for	DRSC00818	9642		4746		inactive
CG13116	DRSC02214	4045	11132	1547	4995	inactive
CG13116	DRSC21945	2.35e5	3.54e5	1.24e5	1.70e5	inactive
CG5355	DRSC02844	9586		1191		inactive
CG3088	DRSC10352	3722		1872		inactive
Ekar	DRSC17161	16660		11752		inactive
CG9147	DRSC03147	3317	6163	876	1993	inactive
ind	DRSC11355	6036		685		inactive
ttk	DRSC14078	3783		1248		inactive
ttk	DRSC17091	9485		8528		inactive
Reg-2	DRSC08690	10429		3370		inactive
CG15044	DRSC19620	20934		12336		inactive
CG15044	DRSC21385	3.14e5	2.44e5	1.68e5	1.20e5	inactive
CG15035	DRSC17967	14045		8577		inactive
nAChRalpha6	DRSC01096	19561		7497		inactive
nAChRalpha6	DRSC01098	17770		4448		inactive
nAChRalpha6	DRSC02738	8432		4633		inactive
CG32708	DRSC18411	33238		17922		inactive
CG8301	DRSC16405	10374		2411		inactive
CG14246	DRSC14741	12712		6551		inactive
CG15306	DRSC17993	12934		8764		inactive
CG15306	DRSC18240	17910		9875		inactive
cyc	DRSC11337	18480		5113		inactive
Vha14-1	DRSC07571	4947		2132		inactive
Spt	DRSC07123	3479	8135	506	3578	inactive
DCP1	DRSC04091	11478		3650		inactive
CG9497	DRSC03234	13003		5843		inactive
LSm1	DRSC04458	4125	10534	1337	4176	inactive
lqf	DRSC11363	4242		1019		inactive
CG8661	DRSC20115	24404		11724		inactive
Cpr49Ad	DRSC07284	8089		4007		inactive
CG12795	DRSC00354	3760	11488	1106	2948	inactive
CG2663	DRSC12314	7904		1958		inactive
Pms2	DRSC07511	9923		1304		inactive
CG8229 + CG33199	DRSC05134	15542		7536		inactive
CG32266	DRSC08062	2809		1521		inactive
intr	DRSC14528	3227	8365	1033	2468	inactive
CG31373	DRSC16052	19210		4116		inactive
CG11373	DRSC12170	10941		3410		inactive
RpL15	DRSC20963	20064		8323		inactive
RpL37A	DRSC02899	5179	9077	1037	1968	inactive
CG9632	DRSC16528	9685		2169		inactive
CG31380	DRSC15688	17142		17508		inactive
CG4619	DRSC02764	8137		1696		inactive
elB	DRSC03527	3949	9386	1565	4433	inactive
CG30428	DRSC04041	19082		7616		inactive
rdx	DRSC14526	15220		1171		inactive
rdx	DRSC16580	12080		2029		inactive
CG34196	DRSC05704	20216		12524		inactive
Gr22c	DRSC22081	7.33e5	8.11e5	3.47e5	3.89e5	inactive
CG34342	DRSC09756	2280	8561	1546	3565	inactive
CG34342	DRSC22515	5.13e5	4.37e5	1.59e5	236	inactive

Laid out differently: entries from further up.
CG5103 [DRSC10481] → firefly reporter light, replicate 1: 5328; Renilla control light, replicate 1: 2397; Call: inactive
for [DRSC00195] → firefly reporter light, replicate 1: 20914; Renilla control light, replicate 1: 9141; Call: inactive
for [DRSC00818] → firefly reporter light, replicate 1: 9642; Renilla control light, replicate 1: 4746; Call: inactive
CG13116 [DRSC02214] → firefly reporter light, replicate 1: 4045; firefly reporter light, replicate 2: 11132; Renilla control light, replicate 1: 1547; Renilla control light, replicate 2: 4995; Call: inactive
CG13116 [DRSC21945] → firefly reporter light, replicate 1: 2.35e5; firefly reporter light, replicate 2: 3.54e5; Renilla control light, replicate 1: 1.24e5; Renilla control light, replicate 2: 1.70e5; Call: inactive
CG5355 [DRSC02844] → firefly reporter light, replicate 1: 9586; Renilla control light, replicate 1: 1191; Call: inactive
CG3088 [DRSC10352] → firefly reporter light, replicate 1: 3722; Renilla control light, replicate 1: 1872; Call: inactive
Ekar [DRSC17161] → firefly reporter light, replicate 1: 16660; Renilla control light, replicate 1: 11752; Call: inactive
CG9147 [DRSC03147] → firefly reporter light, replicate 1: 3317; firefly reporter light, replicate 2: 6163; Renilla control light, replicate 1: 876; Renilla control light, replicate 2: 1993; Call: inactive
ind [DRSC11355] → firefly reporter light, replicate 1: 6036; Renilla control light, replicate 1: 685; Call: inactive
ttk [DRSC14078] → firefly reporter light, replicate 1: 3783; Renilla control light, replicate 1: 1248; Call: inactive
